# Results: the supplement of paper PMC8728848
# The other results are listed elsewhere or left out.
# How the values were obtained:
# Assay in all cases: glycan array binding signal (z-score within array); higher = stronger binding
# Conditions in all cases: glycan notation: IUPAC condensed, linker removed
# [1] = target: Fuc(a1-2)Gal(b1-4)[Fuc(a1-3)]GlcNAc(b1-2)Man(a1-3)[Fuc(a1-2)Gal(b1-4)[Fuc(a1-3)]GlcNAc(b1-2)Man(a1-6)]Man(b1-4)GlcNAc(b1-4)[Fuc(a1-6)]GlcNAc
# Summary of the method: (§1)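 The Consortium for Functional Glycomics database supplied 3228 glycan arrays, of which those lacking an available protein sequence were dropped. The binding signal, a within-array Z-score, was averaged across arrays of the same protein sequence and across linkers. Negative scores can be read as non-binding.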
# [2] = target: Fuc(a1-2)Gal(b1-4)[Fuc(a1-3)]GlcNAc(b1-2)[Fuc(a1-2)Gal(b1-4)[Fuc(a1-3)]GlcNAc(b1-4)]Man(a1-3)[Fuc(a1-2)Gal(b1-4)[Fuc(a1-3)]GlcNAc(b1-2)Man(a1-6)]Man(b1-4)GlcNAc(b1-4)GlcNAc
# Summary of the method: as §1
# [3] = target: Fuc(a1-2)Gal(b1-4)[Fuc(a1-3)]GlcNAc(b1-3)Gal(b1-4)[Fuc(a1-3)]GlcNAc
# Summary of the method: as §1
# [4] = target: Fuc(a1-2)Gal(b1-4)[Fuc(a1-3)]GlcNAc(b1-3)Gal(b1-4)[Fuc(a1-3)]GlcNAc(b1-3)Gal(b1-4)[Fuc(a1-3)]GlcNAc
# Summary of the method: as §1
# [5] = target: Fuc(a1-2)Gal(b1-4)[Fuc(a1-3)]GlcNAc(b1-3)GalNAc
# Summary of the method: as §1
# [6] = target: Fuc(a1-2)Gal(b1-4)[Fuc(a1-3)]GlcNAc(b1-3)[Neu5Ac(a2-6)Gal(b1-4)GlcNAc(b1-6)]Gal(b1-4)Glc
# Summary of the method: as §1
# [7] = target: Fuc(a1-2)Gal3S(b1-4)GlcNAc
# Summary of the method: as §1
# [8] = target: Fuc(a1-2)Gal6S(b1-3)GlcNAc
# Summary of the method: as §1
# [9] = target: Fuc(a1-2)Gal6S(b1-3)GlcNAc6S
# Summary of the method: as §1
# Fuc(a1-2)Gal6S(b1-4)Glc = target: Fuc(a1-2)Gal6S(b1-4)Glc
# Summary of the method: as §1
# [10] = target: Fuc(a1-2)Gal6S(b1-4)Glc6S
# Summary of the method: as §1
# Fuc(a1-2)[Gal(a1-3)]Gal = target: Fuc(a1-2)[Gal(a1-3)]Gal
# Summary of the method: as §1
# [11] = target: Fuc(a1-2)[Gal(a1-3)]Gal(b1-3)GalNAc
# Summary of the method: as §1
# [12] = target: Fuc(a1-2)[Gal(a1-3)]Gal(b1-3)GalNAc(b1-3)Gal(a1-4)Gal(b1-4)Glc
# Summary of the method: as §1
# [13] = target: Fuc(a1-2)[Gal(a1-3)]Gal(b1-3)GlcNAc
# Summary of the method: as §1
# [14] = target: Fuc(a1-2)[Gal(a1-3)]Gal(b1-3)GlcNAc(b1-2)Man(a1-3)[Fuc(a1-2)[Gal(a1-3)]Gal(b1-3)GlcNAc(b1-2)Man(a1-6)]Man(b1-4)GlcNAc(b1-4)GlcNAc
# Summary of the method: as §1
# [15] = target: Fuc(a1-2)[Gal(a1-3)]Gal(b1-3)GlcNAc(b1-2)Man(a1-3)[Fuc(a1-2)[Gal(a1-3)]Gal(b1-3)GlcNAc(b1-2)Man(a1-6)]Man(b1-4)GlcNAc(b1-4)[Fuc(a1-6)]GlcNAc
# Summary of the method: as §1
# [16] = target: Fuc(a1-2)[Gal(a1-3)]Gal(b1-3)GlcNAc(b1-3)GalNAc
# Summary of the method: as §1
# [17] = target: Fuc(a1-2)[Gal(a1-3)]Gal(b1-3)GlcNAc(b1-6)GalNAc
# Summary of the method: as §1
# [18] = target: Fuc(a1-2)[Gal(a1-3)]Gal(b1-4)Glc
# Summary of the method: as §1
# [19] = target: Fuc(a1-2)[Gal(a1-3)]Gal(b1-4)GlcNAc
# Summary of the method: as §1
# [20] = target: Fuc(a1-2)[Gal(a1-3)]Gal(b1-4)GlcNAc(b1-2)Man
# Summary of the method: as §1
# [21] = target: Fuc(a1-2)[Gal(a1-3)]Gal(b1-4)GlcNAc(b1-2)Man(a1-3)[Fuc(a1-2)[Gal(a1-3)]Gal(b1-4)GlcNAc(b1-2)Man(a1-6)]Man(b1-4)GlcNAc(b1-4)GlcNAc
# Summary of the method: as §1
# [22] = target: Fuc(a1-2)[Gal(a1-3)]Gal(b1-4)GlcNAc(b1-2)Man(a1-3)[Fuc(a1-2)[Gal(a1-3)]Gal(b1-4)GlcNAc(b1-2)Man(a1-6)]Man(b1-4)GlcNAc(b1-4)[Fuc(a1-6)]GlcNAc
# Summary of the method: as §1
# [23] = target: Fuc(a1-2)[Gal(a1-3)]Gal(b1-4)GlcNAc(b1-3)GalNAc
# Summary of the method: as §1
# [24] = target: Fuc(a1-2)[Gal(a1-3)]Gal(b1-4)GlcNAc(b1-3)[Fuc(a1-2)[Gal(a1-3)]Gal(b1-4)GlcNAc(b1-6)]GalNAc
# Summary of the method: as §1
# [25] = target: Fuc(a1-2)[Gal(a1-3)]Gal(b1-4)GlcNAc(b1-6)GalNAc
# Summary of the method: as §1
# [26] = target: Fuc(a1-2)[Gal(a1-3)]Gal(b1-4)[Fuc(a1-3)]Glc
# Summary of the method: as §1
# [27] = target: Fuc(a1-2)[Gal(a1-3)]Gal(b1-4)[Fuc(a1-3)]GlcNAc
# Summary of the method: as §1
# [28] = target: Fuc(a1-2)[Gal(a1-3)]Gal(b1-4)[Fuc(a1-3)]GlcNAc(b1-3)GalNAc
# Summary of the method: as §1
# [29] = target: Fuc(a1-2)[Gal(a1-4)]Gal(b1-4)GlcNAc
# Summary of the method: as §1
# [30] = target: Fuc(a1-2)[GalNAc(a1-3)]Gal
# Summary of the method: as §1
# [31] = target: Fuc(a1-2)[GalNAc(a1-3)]Gal(b1-3)GalNAc(a1-3)[Fuc(a1-2)]Gal(b1-4)GlcNAc
# Summary of the method: as §1
# [32] = target: Fuc(a1-2)[GalNAc(a1-3)]Gal(b1-3)GalNAc(b1-3)Gal(a1-4)Gal(b1-4)Glc
# Summary of the method: as §1
# [33] = target: Fuc(a1-2)[GalNAc(a1-3)]Gal(b1-3)GlcNAc
# Summary of the method: as §1
# [34] = target: Fuc(a1-2)[GalNAc(a1-3)]Gal(b1-3)GlcNAc(b1-2)Man(a1-3)[Fuc(a1-2)[GalNAc(a1-3)]Gal(b1-3)GlcNAc(b1-2)Man(a1-6)]Man(b1-4)GlcNAc(b1-4)GlcNAc
# Summary of the method: as §1
# [35] = target: Fuc(a1-2)[GalNAc(a1-3)]Gal(b1-3)GlcNAc(b1-2)Man(a1-3)[Fuc(a1-2)[GalNAc(a1-3)]Gal(b1-3)GlcNAc(b1-2)Man(a1-6)]Man(b1-4)GlcNAc(b1-4)[Fuc(a1-6)]GlcNAc
# Summary of the method: as §1
# [36] = target: Fuc(a1-2)[GalNAc(a1-3)]Gal(b1-3)GlcNAc(b1-3)GalNAc
# Summary of the method: as §1
binder,measurement,setting,value
EUL D1A first (Oryza sativa) (protein) MFGFGHHHNQAPAAPSDPNQIFKIFCRANENYCLTVRDSAVVLAPVNPKDEHQHWFKDMRFSTKVKDGEGMPAFALVNKATGLAVKHSLGQSHPVKLVPFNPEYEDASVLWTESKDVGKGFRCIRMVNNTRLNLDAFHGDKDHGGVRDGTTVVLWEWCKGDNQSWKILPWGPEAHSSSPGAATILEQKLISEEDLNSAVDHHHHHH,glycan array binding signal (z-score),[1],0.917
same,glycan array binding signal (z-score),[2],-1.23
same,glycan array binding signal (z-score),[3],0.568
same,glycan array binding signal (z-score),[4],0.387
same,glycan array binding signal (z-score),[5],1.6
same,glycan array binding signal (z-score),[6],-0.981
same,glycan array binding signal (z-score),[7],-0.308
same,glycan array binding signal (z-score),[8],-1.16
same,glycan array binding signal (z-score),[9],-0.397
same,glycan array binding signal (z-score),Fuc(a1-2)Gal6S(b1-4)Glc,0.534
same,glycan array binding signal (z-score),[10],-0.26
same,glycan array binding signal (z-score),Fuc(a1-2)[Gal(a1-3)]Gal,-0.175
same,glycan array binding signal (z-score),[11],-0.603
same,glycan array binding signal (z-score),[12],-1.32
same,glycan array binding signal (z-score),[13],0.384
same,glycan array binding signal (z-score),[14],-0.232
same,glycan array binding signal (z-score),[15],1.05
same,glycan array binding signal (z-score),[16],1.05
same,glycan array binding signal (z-score),[17],-0.959
same,glycan array binding signal (z-score),[18],-0.696
same,glycan array binding signal (z-score),[19],1.85
same,glycan array binding signal (z-score),[20],-0.123
same,glycan array binding signal (z-score),[21],0.344
same,glycan array binding signal (z-score),[22],-0.751
same,glycan array binding signal (z-score),[23],-2.03
same,glycan array binding signal (z-score),[24],0.747
same,glycan array binding signal (z-score),[25],0.644
same,glycan array binding signal (z-score),[26],-0.53
same,glycan array binding signal (z-score),[27],0.177
same,glycan array binding signal (z-score),[28],0.504
same,glycan array binding signal (z-score),[29],-0.296
same,glycan array binding signal (z-score),[30],-0.119
same,glycan array binding signal (z-score),[31],-1.29
same,glycan array binding signal (z-score),[32],-0.283
same,glycan array binding signal (z-score),[33],1.84
same,glycan array binding signal (z-score),[34],-0.903
same,glycan array binding signal (z-score),[35],0.593
same,glycan array binding signal (z-score),[36],-0.961

# Not a retest: an excerpt of the list.
binder,measurement,setting,value
EUL D1A first (Oryza sativa) (protein) MFGFGHHHNQAPAAPSDPNQIFKIFCRANENYCLTVRDSAVVLAPVNPKDEHQHWFKDMRFSTKVKDGEGMPAFALVNKATGLAVKHSLGQSHPVKLVPFNPEYEDASVLWTESKDVGKGFRCIRMVNNTRLNLDAFHGDKDHGGVRDGTTVVLWEWCKGDNQSWKILPWGPEAHSSSPGAATILEQKLISEEDLNSAVDHHHHHH,glycan array binding signal (z-score),[3],0.568
same,glycan array binding signal (z-score),[4],0.387
